From article PMC5727492

Target: T1, McMYB10 (UniProt W5S2D4)
T1 sequence (looked up, limits assumed): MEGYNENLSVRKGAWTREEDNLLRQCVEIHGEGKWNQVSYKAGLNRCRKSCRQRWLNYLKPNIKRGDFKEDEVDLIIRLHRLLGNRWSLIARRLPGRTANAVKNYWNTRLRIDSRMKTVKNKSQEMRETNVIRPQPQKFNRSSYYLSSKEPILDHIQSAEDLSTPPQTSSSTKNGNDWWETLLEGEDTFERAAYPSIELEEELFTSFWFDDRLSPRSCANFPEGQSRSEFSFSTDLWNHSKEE
Experiment: EMSA
Conditions: 100x unlabeled probe competes, LightShift Chemiluminescent EMSA Kit per manufacturer's protocol, about 10 ug purified McMYB10 per reaction, pH and temperature not stated, recombinant protein, protein details: MBP (pMAL-C2X), label: biotin

| Sequence | binding result (stronger than MYB1LEPR) | binding result (bound, but weaker than the other three probes) |
| --- | --- | --- |
| AATATATTTATGGATAAATTATGATTA (double strand) [MYBST1 probe] | binds | – |
| CAGAATTGAAAAACTAACATTTTAATGTG (double strand) [MYB1LEPR probe] | – | binds more weakly |
| GTTGAGCAGGTAACAAATGAAGTCAAG (double strand) [MYBGAHV probe] | binds | – |
| TTATTATTATCTATAACCATTACTATTTATC (double strand) [MYB1AT probe] | binds | – |

The exact form of at least one protein or probe is not confirmed. The comparison behind a weaker result is the experiment's own reference, which may not be listed here. Protein sequences can lack the tags named with them.
